The campaign covered roughly 53,000 sequences. About 3,700 (7%) were called active.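 Rule for the calls: active = gene knockdowns whose robust z-score for IL-1 alpha signal is at least 2 or at most -2, so actives lie on both sides; inactive = the rest.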 Some of the results follow.

A short description of this assay: Components of the Cytosolic LPS Sensing Pathway: Gene Identification via Genome-wide siRNA Screen.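 Note: robust z of the log signal after scaling to non-targeting control siRNA wells of the plate.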 The note with it: RAW264.7 macrophages, IL-1a HTRF, actives lie on both sides, screened at 100 nM (by protocol), cells primed 5 h with Pam3CSK4 first. Put shortly: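 Three distinct siRNAs per gene were tested singly at 100 nM in RAW264.7 macrophages. Following Pam3CSK4 priming and 24 hour LipidA transfection, IL-1a secretion was read by HTRF.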
(In general: TR-FRET usually uses a lanthanide donor and a delayed reading to cut background.)
As for CCCUAGCUAUAAAACUCUCTT against Rabif, the z-score is inactive: 1.45.
For the sequence GGCAUUGAACAAGAAAGAATT against Mef2c, the z-score is inactive: -0.94.
For AGCUGACUGUAAAAAAACCTT against Fuom, the z-score was inactive: 0.19.
Take GGAUCUAUAUCCAGUAGAGTT against Mief2: the z-score is active: 3.38.
The value for GGAUAAUAGCAGCUUAUACTT against Ccl11 was inactive: -0.399.
With GGAAGAGAGUCUGCCUGGUTT against Acot5 the figure was inactive: -0.046; with GGGCCAUCACACACCCUAATT against Ctrl, inactive: 0.314.
For GGAAAGAGCACCAAUUUUUTT against Ccr5, the z-score was inactive: 1.43.
The value for CGAACUCAAGAGUGUGGAGTT against Becn1 was inactive: 0.641; that for GGUCCUGUGGAUAACAAUATT against Inha was inactive: 0.437.
For the sequence GCAUUACCAAGGCGAUUUUTT against Ren2, the z-score is inactive: 0.191.
With GGCACGGAAAUCUUUACAATT against Tmem214 the figure was inactive: -0.0138; with GGUUCAGUCAAGAAUUGCUTT against Clec4e, inactive: 1.68.
The value for GGACUCAAGAGAAAUUCAATT against Nod2 was active: 2.19; that for GGCAACAGGACUGCCAAAUTT against Arhgap12 was inactive: -0.807; that for “GGAGCAUUGCUUCUCUGACTT against 6030445D17Rik” was inactive: 0.954.
With GGGCAUCCAGGAUUAUGUGTT against Vamp5, the z-score is inactive: -0.245.
The value for AGAGAUGGAAAGUGGUUUCTT against Olfr1226 was inactive: 1.18.
Regarding GGUUGAACGAAGGGAAAAATT against Mak16, the z-score was inactive: -1.89.
The value for GGAUCUGAAGGUGAUGUCATT against H2-Q10 was active: -2.72.
The value for GGGACUUGGAUCGAAUGGATT against Apeh was inactive: 0.326; that for GCCAAGCUUACUCAGAUUUTT against Mslnl was active: 2.45.
On to GCUAGGCAGUGAAGUUGAUTT against Atf4, for which the z-score was inactive: 0.755.
Regarding GGAGAAUGUGUAGCUGUGATT against Lcn9, the z-score is inactive: -1.94.
For the sequence GCUUGACCCUACACUACAGTT against Olfr1121, the z-score was active: 2.47.
Regarding GGCCAACCAAGUCUUCUGATT against Zwilch, the z-score is inactive: 0.383.
GGAAAAGUUGCAUUUGGUCTT against Wdr17: the z-score was inactive: -1.02.
Consider UCACUUGUACCAAAAAUGATT against Adcy1, for which the z-score was inactive: -1.43.
Consider CCAGAAGCCAACUAUCUUUTT against Ppp1cb, for which the z-score is inactive: -0.0929.
GCUCUUUCUAGCCCUUCCCTT against Spry3: the z-score is inactive: -0.915.
The value for CCUGCAUUAGCAUGUUAGGTT against Gfral was inactive: -0.483.
For the sequence CACUCUUGAUACAAAUGAGTT against Ifna16, the z-score was inactive: -1.36.
For the sequence GGCUUGUGGCCUUAUCUGATT against Comtd1, the z-score is inactive: 0.164.
With GGAGAACAAAGUGCACUUGTT against Cpsf4l the figure was inactive: -0.972; with GUAUCAGUGCCAGAGCUACTT against Lor, inactive: 0.292.
Turning to GGAGUUUACUGAGUUUUAGTT against Prkaca, the z-score is active: 4.49.
For the sequence GGAUUGGAAAUGGCCACAGTT against Rbm12b1, the z-score is inactive: 1.06.
Regarding GGAGCUCAUGAUCGUCAAATT against Krt88, the z-score is inactive: 0.87.
The value for GGGCAUAGUGACCAGGUUATT against Fgf14 was active: 2.67.
As to GGAAAUGAAAACUUCUGUUTT against Nudt15, the z-score was inactive: 0.19.
On to CCAAAUGUUUCGUUAAACUTT against Trf, for which the z-score is inactive: -0.189.
In the case of GCAGAAGACAUCGUACCAATT against Mcm4, the z-score is inactive: 0.918.
On to GCAGCUAGUGGUUUCUUUGTT against Stra6, for which the z-score was inactive: 0.458.
The value for GGGAGGUUACUAUGGAGACTT against Mia was inactive: 1.68; that for CCAUGCUUGAGAGGAAUAATT against Hint3 was inactive: -0.0161.
With GGACAGUUCUUACUUUACATT against Drd2, the z-score is inactive: 1.18.
The value for GCGCAAUGACGAUAAACUCTT against Sema3f was inactive: 0.534.
On to GGGAUAAGCAUGCUCAGUGTT against Mrgpra2b, for which the z-score is inactive: -1.42.
For GCUUUUCAGUCUCAUAGUGTT against Huwe1, the z-score is inactive: 0.468.
With GGCCUUUAUCCGGAACAUATT against Zfp454 the figure was inactive: 0.168.
With GCGGUGACAUCAUGAUCCATT against Bop1, the z-score is inactive: -0.752.
Turning to CCAGGCUAUUUGUAUGCUGTT against Usp54, the z-score is inactive: 0.605.
Turning to GGACUUCUUCGAUUGUUCUTT against Chchd1, the z-score is inactive: 0.475.
As to CGAGAAGAUGUGUAUGUCGTT against Mkrn2, the z-score was inactive: -0.571.
As for GCCGCCCUUACCCUAUUUATT against Tceal1, the z-score is inactive: 1.4.
As for GCCAAGAGUUUAGCACUUUTT against Acrbp, the z-score was inactive: 0.272.
The value for CCCUUAAUAGACUUCUGAUTT against Chmp1b was inactive: -0.161.
Take GGAAAGCUUCAGAAUCUAATT against Bckdk: the z-score is inactive: -0.365.
GGGAUUAAUAUCAUACCGATT against Slc30a5: the z-score was inactive: -1.33.
As for GCAUCAAUUCCCAAACCUUTT against Selenov, the z-score was inactive: -0.0263.
In the case of GGAGUAUCUGCGUUAUCUUTT against Tsnaxip1, the z-score is inactive: 0.0053.
Turning to GGAUCAAAUUCUACCUUAGTT against Tbc1d5, the z-score was inactive: -0.595.
The value for GGAAAACUAUGCAGGCAUCTT against Capn2 was inactive: 0.117.
For the sequence CCAUCAUGAACACUCAACATT against Olfr462, the z-score was active: -2.59.
For GGUGUUAGGGCUCAAAUAUTT against Glce, the z-score is inactive: 1.17.
GCUAAUCGGAUGCUGAAGCTT against Psmb7: the z-score is inactive: 0.71.
With CCUGGCACUCAUAGUAUACTT against Tm6sf2, the z-score was active: -2.33.
The value for GGCCAUAGUCCUGUUCACCTT against Nr2f2 was inactive: 0.492.
As for GGACAGAUCUUUGAAGCAGTT against Vps18, the z-score was inactive: -1.7.
GGAGAACAGUAACAUUUUUTT against Pcdh7: the z-score was inactive: 0.673.
Regarding GGGCCUUCAGAAGAACAUGTT against Ganab, the z-score was inactive: -1.56.
In the case of CCUUGGAGUGAAGGAUCGCTT against Cited1, the z-score is inactive: 0.608.
Regarding CCCUUAGGAAUUGAAUAUGTT against Cspp1, the z-score was inactive: 0.509.
Take GGACAGUCUGCUCAUCGACTT against Ripor1: the z-score is inactive: -0.6.
Turning to GGAGACAUUGUCCUCUACATT against Car14, the z-score was inactive: -0.722.
On to CGGAUUUUAAAAGGUCACGTT against Vti1a, for which the z-score was inactive: -0.816.
On to GGCGGAGAAUCACCUCACATT against Tgfbrap1, for which the z-score was inactive: -1.51.
GGUAACUUCAUGUGCAGCATT against Ldlrad3: the z-score is inactive: -1.71.
The value for GCCUUUCUUCUAUUCACUATT against Degs2 was inactive: -1.71; that for GGUCAAGUGUCUGAACAACTT against Fkbp8 was inactive: 0.875; that for GGAGACAUUCCAAAUGAGATT against Zfp688 was inactive: 1.01.
For GGUCAAGUCAGCAUUCCUGTT against Hspbp1, the z-score is inactive: -1.78.
As to GGAAACCGUUUUUUUUUUCTT against Appbp2, the z-score was active: 2.16.
With CCAUAUCCCUGUGGAAAAGTT against Manf the figure was inactive: -0.322; with GUUUCCUCAAUGUCUCAGUTT against Olfr1461, inactive: 0.672; with GGAGCUGAAUGUGUUUCGGTT against Best2, inactive: -0.805.
The value for GGGUGCUCUGGACAUGUUGTT against Dcxr was inactive: -0.166.
Consider GGCCCAGAUAAAUAACAUGTT against Kpna1, for which the z-score was inactive: 0.468.
For the sequence “GGUGCAACCAGUGUGUGAUTT against St6galnac6”, the z-score was active: 4.22.
The value for GCAUCUACUCCCUAUAGACTT against Nin was inactive: 0.322; that for GGAGACUUAUAACAUGUUUTT against Habp2 was active: 2.19; that for GGAUUUGAGUUGAAGCGUGTT against Zscan20 was inactive: -0.129.
Take GGAAGUAAAAUUUGACAUGTT against Il1a: the z-score is inactive: -1.42.
As for GCCCUAUAUAUCAUUCUAGTT against Rhoa, the z-score is inactive: 1.12.
The value for UUCUACUGGGCUUAACCAGTT against Olfr1032 was inactive: 1.86; that for CCAAUGGUGUGGUCUGUAATT against Olfr572 was inactive: -1.7; that for GGUCUUCACUGUCGACUACTT against Cpne7 was inactive: 0.643.
In the case of GCCUGGAAUCUCUUCAUGUTT against Pde3a, the z-score was inactive: 0.679.
Regarding GGACAUUUUAGUUGUCUUGTT against Slc38a4, the z-score was inactive: -0.607.
Take GGAGAUCAUUGAAUACUACTT against Sec14l1: the z-score was inactive: 0.811.
Regarding CCUGCUAGAGCCAUUAUUGTT against Memo1, the z-score was inactive: -1.61.
On to GCUUUAGAACAGAGGGUUATT against Scd4, for which the z-score is inactive: 0.989.
Consider GCCGUCCAACACUUGAUUGTT against Rttn, for which the z-score was inactive: 0.509.
In the case of CGGCUCGUAGUUUAUUAAATT against Ccnk, the z-score is inactive: -0.411.
The value for GGCCUAAUUCCACCUUUGCTT against Etv4 was inactive: 0.0765.
For GCAGAUACUAGAGUUGUUUTT against Tent2, the z-score is inactive: -0.0277.
Take CGUAAACAUUUCCUUCUACTT against Dmbt1: the z-score was inactive: -0.718.
For the sequence GGUUUCUGUGCAUUAGGAATT against Slc35e3, the z-score is inactive: 1.96.

The values above are taken from PubChem BioAssay AID1508600 (Functional Genomics Laboratory (NCATS/FGL), 2020).
